Experimental data: PubChem BioAssay AID1671190 (National Center for Advancing Translational Sciences (NCATS), 2021)
Among all 580,000 compounds or so, about 6,100 (1.1%) were called active. The inconclusive results got no clear call from the source; some entries with a clear call stand among them for comparison. Calls come from the whole dose curve; as a rule, active = well fitted inhibition curve with a large enough effect; inconclusive = small, poorly fitted or top-dose-only effect, or another doubt; inactive = no such curve, though single readings can be large or run the other way. Potencies beside an inconclusive call are fits to weak or partial responses and may not hold up.

Chains of the proteins cited; added tags and fusions are not shown. Lines headed by an entry give the natural chain unless they say otherwise; changes in a name come on top.
UniProt P18054: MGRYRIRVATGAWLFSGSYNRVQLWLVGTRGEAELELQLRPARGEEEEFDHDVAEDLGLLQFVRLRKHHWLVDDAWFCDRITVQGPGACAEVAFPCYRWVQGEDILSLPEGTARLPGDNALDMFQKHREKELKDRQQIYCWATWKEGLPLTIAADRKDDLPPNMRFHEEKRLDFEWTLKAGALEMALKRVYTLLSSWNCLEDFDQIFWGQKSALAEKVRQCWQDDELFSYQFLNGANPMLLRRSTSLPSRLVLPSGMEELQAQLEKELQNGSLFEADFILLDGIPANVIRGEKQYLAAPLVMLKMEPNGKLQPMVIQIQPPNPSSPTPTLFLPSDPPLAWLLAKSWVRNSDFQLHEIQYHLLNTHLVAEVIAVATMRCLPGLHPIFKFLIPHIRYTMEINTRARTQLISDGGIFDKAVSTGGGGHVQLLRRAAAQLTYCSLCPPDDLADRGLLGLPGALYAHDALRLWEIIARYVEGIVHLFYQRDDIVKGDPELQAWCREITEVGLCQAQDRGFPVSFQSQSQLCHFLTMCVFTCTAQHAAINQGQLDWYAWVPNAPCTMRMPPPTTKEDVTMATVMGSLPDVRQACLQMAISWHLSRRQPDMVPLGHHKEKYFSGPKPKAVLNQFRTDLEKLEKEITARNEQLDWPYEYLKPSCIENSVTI

Biological target: Polyunsaturated fatty acid lipoxygenase ALOX12 (Homo sapiens) (UniProt P18054)
Experiment: Primary qHTS assay for inhibitors of human arachidonate 12S-lipoxygenase (ALOX12): Round 2
Conditions: purified 12hLO, xylenol orange hydroperoxide absorbance; activity change, negative = inhibition: at 108 µM (top of the series) unless noted
Summary of the method: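 Purified human 12hLO at 150 nM in 25 mM Hepes, 0.01% Triton X-100, pH 7.0, preincubated 15 min at room temperature with compound. Reaction started with 40 uM arachidonic acid, 30 min at room temperature. Hydroperoxide measured by Fe-xylenol orange, 573/405 nm absorbance ratio.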
% is set by controls: 0 for no effect and ±100 for the full control effect; potency is the fitted concentration of half-maximal effect.

Row | SMILES | activity change, negative = inhibition | Potency
1 | O=c1c2ccccc2nc(COc2ccccc2)n1/N=C/c1ccco1 | inactive: -10.5% | –
2 | O=C(C1CCC(CNc2nc(=S)[nH]c3ccccc23)CC1)N1CCN(c2ccccn2)CC1 (stereo not given) | inactive: 13.1% | –
3 | COCCn1c2c(c(=O)[nH]c1=O)C(c1ccccc1Cl)C1=C(N2)c2ccccc2C1=O (stereo not given) | – | inconclusive: 31.6 µM [inhibitor, single point]
4 | COc1ccc(CCNC(=O)c2cccc(C(=O)NCCc3ccc(OC)cc3)n2)cc1 | – | inconclusive: 44.7 µM [inhibitor, partial curve, poor fit]
5 | CCCC[C@@H]1C=C(C(=O)O)[C@H](c2ccc(Cl)c(Cl)c2)N1S(=O)(=O)c1ccc(C)cc1 | – | inconclusive: 70.8 µM [inhibitor, partial curve, poor fit]
6 | Cc1[nH]c2ccccc2c1/C=N/NC(=O)c1cccc(F)c1 | inactive: -4.91% | –
7 | O=S(=O)(Nc1nc2ccccc2nc1N1CCN(c2ccccc2)CC1)c1ccc(F)cc1 | inactive: -29.2% | –
8 | COc1cc(OC)cc(C(=O)NC2CCc3ccccc32)c1 (stereo not given) | – | inconclusive: 126 µM [inhibitor, single point]
9 | Cn1cc(S(=O)(=O)N2CCCCC2)cc1C(=O)Nc1cccc(C#N)c1 | inactive: -15.9% | –
10 | CN(C)C(=O)C1=NOC2(C1)C(=O)Nc1ccccc12 (stereo not given) | – | inconclusive: 100 µM [inhibitor, single point]
11 | O=C1COc2ccc(-c3ccsc3)nc2CN1 | – | inconclusive: 35.5 µM [inhibitor, full curve]
12 | COC(=O)C1CCN(Cc2cc(=O)oc3cc(C)c(Cl)c(C)c23)CC1 | – | inconclusive: 10 µM [inhibitor, full curve, poor fit]
13 | O=C(Nc1nccs1)c1cccc(S(=O)(=O)N2CCOCC2)c1 | – | inconclusive: 35.5 µM [inhibitor, single point]
14 | Cc1ccc(NC(=O)C2CCCCC2)cc1 | inactive: 2.69% | –
15 | CCCn1c(=O)n(CC(=O)Nc2ccc(N3CCCCCC3)cc2)c(=O)c2c1nc(C)n2CCOC | – | inconclusive: 11.2 µM [inhibitor, partial curve, poor fit]
16 | NC1CCCCN(Cc2cc(-c3ccccc3OC(F)(F)F)no2)C1 (stereo not given) | – | inconclusive: 8.91 µM [inhibitor, full curve]
17 | COCCn1nnnc1C(c1cc2ccc(OC)cc2[nH]c1=O)N1CCN(C2CCCCC2)CC1 (stereo not given) | inactive: -1.24% | –
18 | O=C(c1ccccc1F)N1CCN(c2cn[nH]c(=O)c2Cl)CC1 | inactive: -9.41% | –
19 | COc1ccc(-c2noc(C(=O)O)c2[C@@H](C)NC(=O)Nc2cccnc2)cc1 | – | inconclusive: 28.2 µM [inhibitor, partial curve]
20 | CCOC(=O)c1c(NC(=O)c2ccccc2C(=O)O)sc2c1CCCC2 | inactive: -8.46% | –
21 | O=C(O)/C=C/C(=O)Nc1ccccc1-c1ccccc1 | – | inconclusive: 1.78 µM [inhibitor, full curve, poor fit]
22 | COc1ccc(C(=O)N2[C@@H]3CC[C@H]2CC(NC(=O)c2cnc(C)cn2)C3)cc1F (stereo not given in full) | inactive: 3.07% | –

Entries 12 through 13 from above:
Row | SMILES | activity change, negative = inhibition | Potency
12 | COC(=O)C1CCN(Cc2cc(=O)oc3cc(C)c(Cl)c(C)c23)CC1 | – | inconclusive: 10 µM [inhibitor, full curve, poor fit]
13 | O=C(Nc1nccs1)c1cccc(S(=O)(=O)N2CCOCC2)c1 | – | inconclusive: 35.5 µM [inhibitor, single point]

Later entries:

Row | SMILES | activity change, negative = inhibition | Potency
23 | Cn1cc2c3c(cccc31)CN(C(=O)Cc1ccccc1F)CC2 | inactive: -12.1% | –
24 | O=C(O)C[C@@H](CNC(=O)COc1ccc2ccc(=O)oc2c1)c1ccc(Cl)cc1 | – | inconclusive: 31.6 µM [inhibitor, single point]
25 | O=C(Cc1cccc(Cl)c1)N1CCCC(c2nn(-c3ccc(F)cc3)c(=O)[nH]2)C1 (stereo not given) | – | inconclusive: 22.4 µM [inhibitor, full curve]
26 | O=C(NCc1cccnc1)c1ccc(C2CCCCC2)cc1 | – | inconclusive: 4.47 µM [inhibitor, full curve, poor fit]
27 | S=c1nc(-c2ccccc2Br)[nH][nH]1 | – | active: 25.1 µM
28 | Cc1cc(C)c(/C=C/C(=O)c2ccccc2)c(C)c1 | inactive: 0.464% | –
29 | CC(=O)N1CCOc2ccc(S(=O)(=O)NC[C@H]3O[C@@H](n4ccc(N)nc4=O)[C@H](O)[C@@H]3O)cc21 | – | inconclusive: 35.5 µM [inhibitor, single point]
30 | C1CNC(c2nc(CCOCC3CC3)no2)C1 (stereo not given) | inactive: 50.4% | –
31 | Cc1cc(N2C(=O)C(O)=C(C(=O)c3ccc(C)o3)C2c2ccc(OCc3ccccc3)cc2)no1 (stereo not given) | – | inconclusive: 44.7 µM [inhibitor, partial curve, poor fit]
32 | O=C(O)c1cc(S(=O)(=O)N(Cc2ccccc2)c2ccc(Cl)cc2)ccc1Cl | – | inconclusive: 50.1 µM [inhibitor, partial curve, poor fit]
33 | CCCN(C(=O)Cn1ncc2c([nH]c3ccc(C)cc32)c1=O)c1ccccc1C | – | inconclusive: 63.1 µM [inhibitor, partial curve, poor fit]
34 | Cc1nc(NCCN2CCOCC2)c2nnn(Cc3ccccc3Cl)c2n1 | inactive: -20.9% | –
35 | Cc1cc(C(=O)CN2C(=O)NC(Cc3c[nH]c4ccccc34)C2=O)c(C)n1C1CC1 (stereo not given) | – | inconclusive: 50.1 µM [inhibitor, partial curve, poor fit]
36 | Cc1cc(-c2ccc(S(=O)(=O)Nc3ccc(Cl)cc3C)cc2)on1 | inconclusive: -32.3% [inhibitor] | –
37 | Oc1ccc(/C=N/Nc2nc(N3CCCC3)nc(N3CCCC3)n2)cc1O | inactive: -18.2% | –
38 | CCOc1ccccc1NC(=O)c1c(NCc2sccc2C)sc2c1CCC(C)C2 (stereo not given) | – | inconclusive: 50.1 µM [inhibitor, partial curve, poor fit]
39 | COc1cccc(N2CC(NC(=O)/C=C\c3ccc(OC)c(OC)c3)CC2=O)c1 (stereo not given) | – | inconclusive: 141 µM [inhibitor, partial curve, poor fit]
40 | Cc1[nH]c(C(=O)N2CCC(CC(=O)NCc3ccc4c(c3)OCO4)CC2)c(C)c1C(=O)OC(C)C | – | inconclusive: 35.5 µM [inhibitor, partial curve, poor fit]
41 | Cc1ccc(C=C2C(=O)c3ccccc3C2=O)s1 | – | inconclusive: 44.7 µM [inhibitor, partial curve]
42 | C=CCNC(=O)C[C@@H]1CCN(C(=O)Nc2cccc(C(=O)OCC)c2)C[C@@H]1CC | – | inconclusive: 56.2 µM [inhibitor, full curve]
43 | O=[N+]([O-])c1ccc(CNCc2cc(Cl)ccc2O)cc1 | – | inconclusive: 28.2 µM [inhibitor, partial curve, poor fit]
44 | O=C(COc1ccccc1)Nc1ccc(-c2nc3cc(Cl)ccc3o2)cc1 | – | inconclusive: 112 µM [inhibitor, single point]

Given as labelled records: 2 of the compounds above
O=C(O)/C=C/C(=O)Nc1ccccc1-c1ccccc1
  Potency: inconclusive: 1.78 µM [inhibitor, full curve, poor fit]
O=C(O)c1cc(S(=O)(=O)N(Cc2ccccc2)c2ccc(Cl)cc2)ccc1Cl
  Potency: inconclusive: 50.1 µM [inhibitor, partial curve, poor fit]

(next part)

Row | SMILES | activity change, negative = inhibition | Potency
45 | Cc1cc(C(=O)N2CCN(c3cccc(Cl)c3)CC2)c(C)o1 | – | inconclusive: 44.7 µM [inhibitor, partial curve, poor fit]
46 | Cc1c(CN2CCN(S(C)(=O)=O)CC2)sc2c(N3CCOCC3)nc(-c3cnc(N)nc3)nc12 | – | inconclusive: 24.3 µM [inhibitor, partial curve, poor fit]
47 | COc1ccc(NC(=O)Cn2cc(S(=O)(=O)Cc3ccc(F)cc3)c3ccccc32)cc1OC | – | active: 50.1 µM
48 | COc1ccc(NS(=O)(=O)c2cccc(C(=O)N3CCN(Cc4cc(OC)ccc4OC)CC3)c2)cc1 | – | inconclusive: 44.7 µM [inhibitor, single point]
49 | COc1cc(/C=C/CN2CCC(C(=O)NC(c3ccc(F)cc3)c3ccc4ccccc4n3)CC2)ccc1OC(C)=O (stereo not given) | – | inconclusive: 50.1 µM [inhibitor, partial curve, poor fit]
50 | CS(=O)(=O)c1ccc(CN2CCC(O)(Cn3ccnc3)CC2)cc1 | – | inconclusive: 5.62 µM [inhibitor, full curve, poor fit]
51 | COc1ccc(NC(=O)CN2CCN(C(C)=O)CC2)cc1S(=O)(=O)N1CCOCC1 | inactive: -36.1% | –
52 | Cc1noc(C)c1-c1ccc(C(=O)NCC2CC2)c2occc12 | – | inconclusive: 251 µM [inhibitor, partial curve, poor fit]
53 | CCC(N)(C(=O)O)c1cccc(Cl)c1 (stereo not given) | – | inconclusive: 25.1 µM [inhibitor, partial curve, poor fit]
54 | Cc1noc([C@@H](C)NC(=O)Cc2ccccc2)c1C(=O)O | inactive: 17.7% [at 176 µM] | –
55 | CCOC(=O)N1CCc2c(sc3c2C(=O)NC(c2ccccc2F)N3)C1 (stereo not given) | – | inconclusive: 44.7 µM [inhibitor, partial curve]
56 | CC(C)[C@@H]1CN(C(=O)c2ncn[nH]2)C[C@H]1NS(=O)(=O)N(C)C | – | inconclusive: 2.51 µM [inhibitor, full curve, poor fit]
57 | C=CCNCCOCCOc1ccccc1-c1ccccc1 | – | inconclusive: 7.08 µM [inhibitor, full curve, poor fit]
58 | CCN1C(=O)C(Cc2nc3ccccc3c(=O)n2-c2ccc(OC)cc2)c2ccccc21 (stereo not given) | – | inconclusive: 141 µM [inhibitor, partial curve, poor fit]
59 | CCC1(C)NC(=O)N(NC(=O)CCCc2c[nH]c3ccccc23)C1=O (stereo not given) | inactive: -0.886% | –
60 | CC(OC(=O)C1CCN(c2ccc(C(F)(F)F)cn2)CC1)C(=O)Nc1ccc(S(N)(=O)=O)cc1 (stereo not given) | inactive: -1.94% | –
61 | O=C(N[C@H]1C/C=C\C[C@@H](CC(=O)N(CCO)Cc2ccccc2)C(=O)N[C@H](Cc2c[nH]c3ccccc23)COC1=O)OCC1c2ccccc2-c2ccccc21 | – | inconclusive: 44.7 µM [inhibitor, partial curve, poor fit]
62 | Cc1ccc2c(=O)cc(C(=O)N(Cc3cccc(Cl)c3)C3CCS(=O)(=O)C3)oc2c1C (stereo not given) | inactive: -16.5% | –
63 | COc1cccc(/C=N/NC(=O)c2cc3cc([N+](=O)[O-])ccc3s2)c1O | – | inconclusive: 100 µM [inhibitor, partial curve, poor fit]
64 | CCc1c(C)sc(NC(=O)Cc2c(Cl)cccc2Cl)c1C#N | – | inconclusive: 39.8 µM [inhibitor, single point]
65 | O=C1C(=C(O)c2ccccc2)C(=O)c2ccccc21 | – | inconclusive: 63.1 µM [inhibitor, partial curve, poor fit]
